Measurements reported in PubChem BioAssay AID1224830 (NIAID, 2016).
Screen: 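Regulators of TLR4 signalling towards TNF-alpha in macrophage-like cells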 (primary screen). Cell system: human THP-1 monocytic leukaemia cells, TNF dual-luciferase reporter clone, PMA-differentiated to macrophage-like cells. Reagent: siRNA pool against human genes, 50 nM. Timing: LPS for 4 h, given about 3 days after siRNA transfection. Treatment: bacterial LPS (TLR4 ligand), 10 ng/ml. Detection: 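Ratio of firefly to renilla light, scaled to the plate median and expressed as a robust z-score per replicate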. Direction: TNF reporter robust z-score: higher = stronger TNF reporter response to LPS. Call rule: 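Each well counts as active if its z-score is over 2.8 or under -1.5; controls are left without a call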.
Here is an unselected part of about 18,000 deposited reagents. In the full data, about 2,900 (16%) are marked active. 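Calls are made per well; low scores hint the gene aids the LPS response, high scores that it dampens it.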 Unmarked entries are inactive. Repeated entries: four replicate wells of each siRNA pool.

POSTN (GeneID 10631) — TNF reporter robust z-score: -1.59 (active)
POSTN (GeneID 10631) — TNF reporter robust z-score: -1.56 (active)
POSTN (GeneID 10631) — TNF reporter robust z-score: -1.84 (active)
POSTN (GeneID 10631) — TNF reporter robust z-score: -1.75 (active)
AGMO (GeneID 392636) — TNF reporter robust z-score: -1.12
AGMO (GeneID 392636) — TNF reporter robust z-score: -0.22
AGMO (GeneID 392636) — TNF reporter robust z-score: -0.56
AGMO (GeneID 392636) — TNF reporter robust z-score: 0
CAST (GeneID 831) — TNF reporter robust z-score: -0.49
CAST (GeneID 831) — TNF reporter robust z-score: -0.64
CAST (GeneID 831) — TNF reporter robust z-score: -1.64 (active)
CAST (GeneID 831) — TNF reporter robust z-score: -1.24
B9D1 (GeneID 27077) — TNF reporter robust z-score: -0.75
B9D1 (GeneID 27077) — TNF reporter robust z-score: -1.36
B9D1 (GeneID 27077) — TNF reporter robust z-score: -1.52 (active)
B9D1 (GeneID 27077) — TNF reporter robust z-score: -1.02
SPINK13 (GeneID 153218) — TNF reporter robust z-score: 0.16
SPINK13 (GeneID 153218) — TNF reporter robust z-score: -0.32
SPINK13 (GeneID 153218) — TNF reporter robust z-score: 1.32
SPINK13 (GeneID 153218) — TNF reporter robust z-score: 0.92
TTLL3 (GeneID 26140) — TNF reporter robust z-score: 2.02
TTLL3 (GeneID 26140) — TNF reporter robust z-score: 1.45
TTLL3 (GeneID 26140) — TNF reporter robust z-score: 2.98 (active)
TTLL3 (GeneID 26140) — TNF reporter robust z-score: 5.31 (active)

Records above with an active call, once more:
POSTN (GeneID 10631) — TNF reporter robust z-score: -1.59 (active)
POSTN (GeneID 10631) — TNF reporter robust z-score: -1.56 (active)
POSTN (GeneID 10631) — TNF reporter robust z-score: -1.84 (active)
POSTN (GeneID 10631) — TNF reporter robust z-score: -1.75 (active)
CAST (GeneID 831) — TNF reporter robust z-score: -1.64 (active)
B9D1 (GeneID 27077) — TNF reporter robust z-score: -1.52 (active)
TTLL3 (GeneID 26140) — TNF reporter robust z-score: 2.98 (active)
TTLL3 (GeneID 26140) — TNF reporter robust z-score: 5.31 (active)

Next entries:
ZCRB1 (GeneID 85437) — TNF reporter robust z-score: -0.68
ZCRB1 (GeneID 85437) — TNF reporter robust z-score: -0.55
ZCRB1 (GeneID 85437) — TNF reporter robust z-score: -0.46
ZCRB1 (GeneID 85437) — TNF reporter robust z-score: -0.01
MSS51 (GeneID 118490) — TNF reporter robust z-score: -1.68 (active)
MSS51 (GeneID 118490) — TNF reporter robust z-score: -1.25
MSS51 (GeneID 118490) — TNF reporter robust z-score: -0.65
MSS51 (GeneID 118490) — TNF reporter robust z-score: 2.41
SREK1 (GeneID 140890) — TNF reporter robust z-score: 2.05
SREK1 (GeneID 140890) — TNF reporter robust z-score: 1.21
SREK1 (GeneID 140890) — TNF reporter robust z-score: -0.87
RNF17 (GeneID 56163) — TNF reporter robust z-score: 0.08
RNF17 (GeneID 56163) — TNF reporter robust z-score: -1.48
RNF17 (GeneID 56163) — TNF reporter robust z-score: -1.62 (active)
RNF17 (GeneID 56163) — TNF reporter robust z-score: 0.51
MFSD1 (GeneID 64747) — TNF reporter robust z-score: 1.91
MFSD1 (GeneID 64747) — TNF reporter robust z-score: -0.26
MFSD1 (GeneID 64747) — TNF reporter robust z-score: -0.37
MFSD1 (GeneID 64747) — TNF reporter robust z-score: 1.4
SEC24D (GeneID 9871) — TNF reporter robust z-score: 0.51
SEC24D (GeneID 9871) — TNF reporter robust z-score: 0.25
SEC24D (GeneID 9871) — TNF reporter robust z-score: 0.13
SEC24D (GeneID 9871) — TNF reporter robust z-score: 0.28
